In patent publication US20050074834A1 (priority 2001, published 2005):
At least one compound was matched to its structure with a doubt left. No end group written: not given here.

Columns and labels:
[1] = tested on: Hemichromis bimaculatus chromatophores; type: cell-based
[2] = tested on: chromatophore/neuronal cell; type: cell-based
[3] = tested on: chromatophores

## CC(=O)OCC[N+](C)(C)C [Acetylcholine]
[1]
  color change of jewel cichlid chromatophores: caused no color change
[2]
  2-Cell Cytosensor (second cell type included): Eryth. Aggr.

## COC(=O)[C@H]1[C@@H](OC(=O)c2ccccc2)C[C@@H]2CC[C@H]1N2C [Cocaine]
[3]
  Chromatophore response (cell spans the chromatophore type columns): Aggr. (FS)

## C=C[C@@]1(C)CC(=O)[C@]2(O)[C@@]3(C)[C@@H](O)CCC(C)(C)[C@@H]3[C@H](O)[C@H](OC(C)=O)[C@@]2(C)O1 [Forskolin]
[1]
  change of appearance of Hemichromis bimaculatus chromatophores: change the appearance

## RPPGFSPFR [Bradykinin]
[2]
  2-Cell Cytosensor (second cell type included): Eryth. Aggr.
